{
  "sequences": {"note": "Chains of the proteins cited; added tags and fusions are not shown.", "UniProt Q0JBA9, entry or part of it": "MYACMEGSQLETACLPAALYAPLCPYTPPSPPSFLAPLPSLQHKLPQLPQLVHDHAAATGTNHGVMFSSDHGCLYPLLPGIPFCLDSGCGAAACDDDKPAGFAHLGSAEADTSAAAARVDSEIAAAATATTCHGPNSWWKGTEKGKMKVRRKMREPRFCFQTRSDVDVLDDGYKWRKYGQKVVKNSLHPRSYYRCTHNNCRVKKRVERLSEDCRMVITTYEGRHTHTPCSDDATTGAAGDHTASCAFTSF"},
  "source": "paper PMC7819943",
  "about": "“Rice protein-binding microarrays: a tool to detect cis-acting elements near promoter regions in rice”",
  "note": "The list shows a part of the results.",
  "data": [
    {"molecular_target": "OsWRKY34 (Oryza sativa, UniProt Q0JBA9 1-250)", "experiment": "protein-binding microarray (RPBM); PBS, 2% BSA, 51.3 ng/ul salmon testes DNA, 50 uM zinc acetate, 200 nM TF, 25 C, 1 h; high values mean tight binding", "conditions": "protein: recombinant; tags: N-terminal polyhistidine and DsRed monomer fusion (pET32a); label: CyDye5-dUTP incorporated in the synthesized complementary strand; 3' TTTTT single-stranded linker to array surface; dsDNA, one strand shown", "procedure,_shortened": "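Polyhistidine-tagged DsRed fusions of transcription factors, joined at the N-terminus, were expressed in E. coli BL21-CodonPlus and isolated on Ni–NTA. They were incubated at 200 nM for 1 h at 25 °C on a custom Agilent array, double-stranded and BSA-blocked, in PBS with 2% BSA, salmon testes DNA and 50 µM zinc acetate. The binding signal is per-feature fluorescence intensity (arbitrary units) read on an Axon 4000B scanner after washing.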", "values": [
      {"sequence": "CTCGCCCTCGCCCAACGCGCGGTTTTACCCTCTTTTTTTTCGGAGTCACCTAGTGCAG", "binding signal": "8680 fluorescence intensity (a.u.)"},
      {"sequence": "TCTCTTCTCCTCGTGCTCGTCACTCGCGAGCAAATACATCCGGAGTCACCTAGTGCAG", "binding signal": "8320 fluorescence intensity (a.u.)"},
      {"sequence": "AGGGTAGGGTTCTGGTGGTGGTGCTAGTGTGTGTGGGTGTCGGAGTCACCTAGTGCAG", "binding signal": "9070 fluorescence intensity (a.u.)"},
      {"sequence": "ACACCTTTCACACATCCCTTTTCCCTTTCTCCGCGTCGGCCGGAGTCACCTAGTGCAG", "binding signal": "8690 fluorescence intensity (a.u.)"},
      {"sequence": "TTTGTGCCTTCTACGAATTCCTCGTTTCCCTTTTTTTTCGCGGAGTCACCTAGTGCAG", "binding signal": "9050 fluorescence intensity (a.u.)"},
      {"sequence": "CTTTGGGTTGGGGTGTCCCATTTTTCCTTCTTCGATGATACGGAGTCACCTAGTGCAG", "binding signal": "12000 fluorescence intensity (a.u.)"},
      {"sequence": "ATCAATATTTTCGCTTTATGCTTATGCTTACTAGTCAAAACGGAGTCACCTAGTGCAG", "binding signal": "11100 fluorescence intensity (a.u.)"},
      {"sequence": "AACCCGGTCATCTGCATCATCTCCTCAACAGCGTGTTACACGGAGTCACCTAGTGCAG", "binding signal": "11300 fluorescence intensity (a.u.)"},
      {"sequence": "CACCGGTGCTCCCACGCAGATCGCGCCTCTCCTGCAGCTCCGGAGTCACCTAGTGCAG", "binding signal": "8170 fluorescence intensity (a.u.)"},
      {"sequence": "AAAGGCTTACGTACTAACTTTTTCTTATTAAATTCTTATTCGGAGTCACCTAGTGCAG", "binding signal": "8460 fluorescence intensity (a.u.)"},
      {"sequence": "ATCTACTACTATTCTACTCTACTCGCAAGTCTCACAAACACGGAGTCACCTAGTGCAG", "binding signal": "8740 fluorescence intensity (a.u.)"},
      {"sequence": "TTTACTCCCAATTCATCTATAAATATTCCGTCTGTATTTTCGGAGTCACCTAGTGCAG", "binding signal": "10200 fluorescence intensity (a.u.)"},
      {"sequence": "ATTCGCCTTTATAACCGTAAGGCCTTTTTCCTTTTCTGAACGGAGTCACCTAGTGCAG", "binding signal": "9040 fluorescence intensity (a.u.)"},
      {"sequence": "GACATTATTCTAATATCTTATGTTTTTTAGTTTTGTTCTACGGAGTCACCTAGTGCAG", "binding signal": "9350 fluorescence intensity (a.u.)"},
      {"sequence": "TAGCCGTTTTTTTTTTCTTACTTATCGCTTTCTCCTCGTTCGGAGTCACCTAGTGCAG", "binding signal": "10000 fluorescence intensity (a.u.)"},
      {"sequence": "GATCGTCTCTTTTTCTTTCTTTCTTTCCTTCCTCCACAACCGGAGTCACCTAGTGCAG", "binding signal": "8040 fluorescence intensity (a.u.)"},
      {"sequence": "GTCACGGTCTCTGTCACCTCATTAACTTGCTCCCTACACCCGGAGTCACCTAGTGCAG", "binding signal": "12800 fluorescence intensity (a.u.)"},
      {"sequence": "CCTCGTTCAGTCGTTCCTGCGAGCCCTACCGTGTGCTCACCGGAGTCACCTAGTGCAG", "binding signal": "11600 fluorescence intensity (a.u.)"},
      {"sequence": "AGGCTACGTCCTATATATATATTCACCTGCTTTAATTTGCCGGAGTCACCTAGTGCAG", "binding signal": "9280 fluorescence intensity (a.u.)"},
      {"sequence": "CGTACTCTCACCAAACTCGGCCTGCGCCAGGCGCCAGACACGGAGTCACCTAGTGCAG", "binding signal": "8850 fluorescence intensity (a.u.)"},
      {"sequence": "CCGGCCACCGACCACCGCCCCTGCGTTCCCGCTCTTCTCTCGGAGTCACCTAGTGCAG", "binding signal": "10200 fluorescence intensity (a.u.)"},
      {"sequence": "CCCTCTGATCCTAACTGTAATATGTTTGAAGCTTGCAAATCGGAGTCACCTAGTGCAG", "binding signal": "9760 fluorescence intensity (a.u.)"},
      {"sequence": "ACAAACCGGGGCGGGCGGGGCATCCACAACCAACCAACTCCGGAGTCACCTAGTGCAG", "binding signal": "11200 fluorescence intensity (a.u.)"}
    ]}
  ]
}
